From paper PMC7332983
Results are given in words; binding and its absence hold for the method and conditions named. In cells and extracts the contact can be indirect. Some entries that bind do so weakly or less than the wild type. Sequences can lack the tags named with a protein.

Protein sequences, listed by entry. Tags and fused reporters are not part of them.
UniProt Q15154: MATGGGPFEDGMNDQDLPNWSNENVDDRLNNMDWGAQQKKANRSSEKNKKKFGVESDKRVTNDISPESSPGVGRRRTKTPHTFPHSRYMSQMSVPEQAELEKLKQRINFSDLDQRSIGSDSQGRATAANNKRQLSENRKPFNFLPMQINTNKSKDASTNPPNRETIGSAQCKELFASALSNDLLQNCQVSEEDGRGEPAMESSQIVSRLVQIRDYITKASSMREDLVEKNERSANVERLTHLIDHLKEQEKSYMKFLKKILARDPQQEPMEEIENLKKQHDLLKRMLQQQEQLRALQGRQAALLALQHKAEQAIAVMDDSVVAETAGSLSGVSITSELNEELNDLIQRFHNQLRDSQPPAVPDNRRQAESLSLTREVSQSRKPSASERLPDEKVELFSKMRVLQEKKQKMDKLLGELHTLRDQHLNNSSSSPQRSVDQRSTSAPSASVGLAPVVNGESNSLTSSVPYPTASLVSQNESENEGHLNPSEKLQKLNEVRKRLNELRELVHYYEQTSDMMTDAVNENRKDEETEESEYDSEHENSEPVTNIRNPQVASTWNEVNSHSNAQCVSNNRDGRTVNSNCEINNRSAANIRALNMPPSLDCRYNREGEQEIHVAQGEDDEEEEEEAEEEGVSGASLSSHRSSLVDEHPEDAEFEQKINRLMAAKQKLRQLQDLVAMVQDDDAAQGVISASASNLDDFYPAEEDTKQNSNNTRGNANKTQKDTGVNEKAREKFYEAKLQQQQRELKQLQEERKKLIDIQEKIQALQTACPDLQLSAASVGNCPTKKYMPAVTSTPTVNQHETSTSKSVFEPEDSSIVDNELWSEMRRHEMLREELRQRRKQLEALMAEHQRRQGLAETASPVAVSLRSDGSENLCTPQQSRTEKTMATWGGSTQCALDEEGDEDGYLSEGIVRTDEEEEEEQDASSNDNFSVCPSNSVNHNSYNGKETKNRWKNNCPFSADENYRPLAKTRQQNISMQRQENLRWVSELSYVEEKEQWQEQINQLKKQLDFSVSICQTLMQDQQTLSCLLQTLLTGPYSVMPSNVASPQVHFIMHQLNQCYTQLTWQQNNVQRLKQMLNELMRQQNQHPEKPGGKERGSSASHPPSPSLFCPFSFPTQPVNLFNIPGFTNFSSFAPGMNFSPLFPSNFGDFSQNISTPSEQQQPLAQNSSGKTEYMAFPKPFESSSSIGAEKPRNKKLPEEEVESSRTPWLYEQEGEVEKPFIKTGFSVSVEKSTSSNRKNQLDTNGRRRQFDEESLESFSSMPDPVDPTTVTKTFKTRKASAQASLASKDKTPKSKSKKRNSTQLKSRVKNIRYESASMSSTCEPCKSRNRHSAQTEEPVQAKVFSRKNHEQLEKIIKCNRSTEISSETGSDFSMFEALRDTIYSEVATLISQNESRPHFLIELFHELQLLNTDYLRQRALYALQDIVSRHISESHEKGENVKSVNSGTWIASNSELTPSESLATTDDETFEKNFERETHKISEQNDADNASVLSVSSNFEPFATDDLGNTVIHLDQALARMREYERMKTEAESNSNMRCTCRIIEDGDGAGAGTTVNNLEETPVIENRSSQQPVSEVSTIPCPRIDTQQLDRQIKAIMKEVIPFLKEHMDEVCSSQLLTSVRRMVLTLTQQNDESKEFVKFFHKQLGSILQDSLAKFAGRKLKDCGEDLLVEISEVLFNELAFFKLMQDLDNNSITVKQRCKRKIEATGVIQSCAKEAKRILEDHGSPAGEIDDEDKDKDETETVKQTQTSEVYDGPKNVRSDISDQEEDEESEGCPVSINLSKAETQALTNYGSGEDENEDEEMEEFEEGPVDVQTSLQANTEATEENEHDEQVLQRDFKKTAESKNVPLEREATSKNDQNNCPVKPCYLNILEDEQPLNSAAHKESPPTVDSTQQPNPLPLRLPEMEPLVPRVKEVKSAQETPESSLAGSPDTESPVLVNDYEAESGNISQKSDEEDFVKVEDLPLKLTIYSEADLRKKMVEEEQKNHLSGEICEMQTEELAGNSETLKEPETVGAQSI

Key:
[1] = molecular target: T1, 3xFLAG-tagged full-length trichoplein (TCHP), FLAG at the N-terminus (human) (UniProt Q9BT92); assay: co-IP; HEK293 transfected for 48 h; total lysates immunoprecipitated with anti-FLAG antibodies, blots probed with anti-PCM1, anti-FLAG and anti-ACTIN
T1 sequence: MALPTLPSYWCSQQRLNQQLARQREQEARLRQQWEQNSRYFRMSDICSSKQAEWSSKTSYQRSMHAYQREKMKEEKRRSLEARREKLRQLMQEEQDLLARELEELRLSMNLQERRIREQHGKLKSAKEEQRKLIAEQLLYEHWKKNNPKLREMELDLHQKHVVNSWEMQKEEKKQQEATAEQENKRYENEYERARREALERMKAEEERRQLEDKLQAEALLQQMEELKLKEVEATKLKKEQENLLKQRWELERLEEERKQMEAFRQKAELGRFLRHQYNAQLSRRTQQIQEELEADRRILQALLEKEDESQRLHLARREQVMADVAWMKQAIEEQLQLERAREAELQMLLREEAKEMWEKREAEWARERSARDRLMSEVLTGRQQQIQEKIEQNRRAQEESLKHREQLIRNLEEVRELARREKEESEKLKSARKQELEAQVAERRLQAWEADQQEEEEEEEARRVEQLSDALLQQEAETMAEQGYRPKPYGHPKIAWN

[2] = molecular target: T2, TCHP-FLAG, FLAG at the C-terminus (human) (UniProt Q9BT92); assay: as above
T2 sequence: T1 sequence

PCM1, centriolar satellite protein, endogenous in HEK293 cells (from UniProt Q15154 1-2024)
binding [1]: binds
binding [2]: binds
